No constants are given. Whether binding was seen depends on the method and setting. Some binding calls cover weakened binding; strength is not graded here. One block for each binder: values may come before it.
Molecular target: PD-1 expressed on cells (human) (UniProt Q15116)
Experiment: flow cytometry on PD-1 expressing Flp-In CHO cells

By UniProt entry, the sequences of proteins in these tests, tags left out. Where a name states a change or a piece, a line headed by the entry shows the natural chain unless it says otherwise.
UniProt Q15116: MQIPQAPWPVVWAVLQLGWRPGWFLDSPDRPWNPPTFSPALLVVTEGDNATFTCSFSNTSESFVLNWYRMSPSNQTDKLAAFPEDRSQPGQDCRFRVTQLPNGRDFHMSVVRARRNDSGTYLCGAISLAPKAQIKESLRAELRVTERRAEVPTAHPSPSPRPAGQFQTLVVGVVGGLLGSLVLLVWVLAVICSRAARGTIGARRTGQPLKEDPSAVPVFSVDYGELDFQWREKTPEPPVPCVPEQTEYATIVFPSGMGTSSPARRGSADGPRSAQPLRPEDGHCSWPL

binding: binds
B1: A20 (antibody, V domains shown)
VH: EVQLVESGGGLVQPGGSLRLSCAASGFTFSFYDMHWVRQAKGKGLEWVSAIGTAGDTYYPGSVKGRFTISRENAKNSLYLQMNSLRAGDTAVYYCARGYCSTTNCFADYFDYWGQGTLVTVSS
VL: DIQLTQSPSFLSASVGDRVTITCRASQGISNYLAWYQQKPGKAPKLLIYAASTLQSGVPSRFSGSGSGTEFTLTISSLQPEDFATYYCHQLNSFPLTFGGGTKVEIK

binding: binds
B2: A19 (antibody, V domains shown)
VH: QVQLVESGGGVVQPGRSLRLSCAASGFTFSNYGMYWVRQAPGKGLEWVAVIWYDGSNKYYADSVKGRFTISRDNSKNTLYLQMNSLRAEDTAVYYCAGGGDILTGDYWGQGTLVTVSS
VL: DIQMTQSPSSLSASVGDRVTITCRASQGIRNDLGWYQQKPGKAPKRLIYAASSLQSGVPSRFSGSGSGTEFTLTISSLQPEDFATYYCLQYKSYLYTFGQGTKLEIK

binding: binds
B3: A3 (antibody, V domains shown)
VH: QVQLVESGGGEVQPGRSLRLSCAASGFTFSDYGMHWVRQAPGKGLEWVAVIWYDGSNKYYADSVKGRFTISRDNSKNTLYLQMNSLRAEDTAVYYCAGGGSYWGDYWGQGTLVTVSS
VL: DIQMTQSPSSLSASVGDRVTITCRASQGIRNELGWYQQKPGKAPKRLIYAASSLQSGVPSRFSGSGSGTEFTLTISSLQPEDFATYYCLQHYIYPWTFGQGTKVEIKR

From US20220064302A1
